This assay has as its target PacII_M1M2S methyltransferase heterotrimer (Pseudomonas alcaligenes NEB585). Briefly: SEC; purified M1M2S mixed with Ocr or ArdA at 1:5 molar ratio; Superdex G200 16/60 in 20 mM Tris pH 7.5, 150 mM NaCl, 1 mM DTT; both purified. A general note: In gel filtration, larger molecules generally elute earlier.

Results are given in words; binding and its absence hold for the method and conditions named. A result given as binding can be weak or reduced; the word gives no strength.

This note sets out measurements from PMC9613975.

B1: Ocr (anti-restriction protein) (protein, UniProt P03775 1-117)
chain: MAMSNMTYNNVFDHAYEMLKENIRYDDIRDTDDLHDAIHMAADNAVPHYYADIFSVMASEGIDLEFEDSGLMPDTKDVIRILQARIYEQLTIDLWEDAEDLLNEYLEEVEEYEEDEE
B1: the binding entry is on record as “binds”.
